Measured values: publication PMC5833367
Results are given in words; binding and its absence hold for the method and conditions named. In cells and extracts the contact can be indirect. Some entries that bind do so weakly or less than the wild type.

Amino acid sequences for entries named in this document (tags omitted). Residues count along the entry.
UniProt Q61221: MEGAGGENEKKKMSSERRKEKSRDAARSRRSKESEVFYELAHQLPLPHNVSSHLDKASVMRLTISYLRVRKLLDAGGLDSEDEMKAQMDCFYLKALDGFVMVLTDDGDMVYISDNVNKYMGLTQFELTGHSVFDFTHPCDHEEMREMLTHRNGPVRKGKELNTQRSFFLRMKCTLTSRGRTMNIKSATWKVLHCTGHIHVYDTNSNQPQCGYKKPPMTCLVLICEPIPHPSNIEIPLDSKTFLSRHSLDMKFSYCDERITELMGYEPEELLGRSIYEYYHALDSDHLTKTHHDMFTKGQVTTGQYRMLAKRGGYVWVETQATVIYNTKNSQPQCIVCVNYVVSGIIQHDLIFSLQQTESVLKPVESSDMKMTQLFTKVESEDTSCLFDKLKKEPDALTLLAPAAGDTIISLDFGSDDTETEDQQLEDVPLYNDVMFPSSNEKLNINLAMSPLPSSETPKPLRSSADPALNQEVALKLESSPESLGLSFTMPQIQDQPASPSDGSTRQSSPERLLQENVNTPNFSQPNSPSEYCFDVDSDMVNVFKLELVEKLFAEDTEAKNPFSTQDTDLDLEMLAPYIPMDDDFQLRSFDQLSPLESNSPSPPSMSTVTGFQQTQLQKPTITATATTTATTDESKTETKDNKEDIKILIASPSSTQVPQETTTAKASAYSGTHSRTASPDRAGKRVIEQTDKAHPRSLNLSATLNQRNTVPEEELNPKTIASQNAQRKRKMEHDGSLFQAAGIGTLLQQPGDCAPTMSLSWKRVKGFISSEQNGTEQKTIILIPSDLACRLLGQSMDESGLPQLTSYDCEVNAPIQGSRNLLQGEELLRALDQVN
UniProt P30561, residues 10-848: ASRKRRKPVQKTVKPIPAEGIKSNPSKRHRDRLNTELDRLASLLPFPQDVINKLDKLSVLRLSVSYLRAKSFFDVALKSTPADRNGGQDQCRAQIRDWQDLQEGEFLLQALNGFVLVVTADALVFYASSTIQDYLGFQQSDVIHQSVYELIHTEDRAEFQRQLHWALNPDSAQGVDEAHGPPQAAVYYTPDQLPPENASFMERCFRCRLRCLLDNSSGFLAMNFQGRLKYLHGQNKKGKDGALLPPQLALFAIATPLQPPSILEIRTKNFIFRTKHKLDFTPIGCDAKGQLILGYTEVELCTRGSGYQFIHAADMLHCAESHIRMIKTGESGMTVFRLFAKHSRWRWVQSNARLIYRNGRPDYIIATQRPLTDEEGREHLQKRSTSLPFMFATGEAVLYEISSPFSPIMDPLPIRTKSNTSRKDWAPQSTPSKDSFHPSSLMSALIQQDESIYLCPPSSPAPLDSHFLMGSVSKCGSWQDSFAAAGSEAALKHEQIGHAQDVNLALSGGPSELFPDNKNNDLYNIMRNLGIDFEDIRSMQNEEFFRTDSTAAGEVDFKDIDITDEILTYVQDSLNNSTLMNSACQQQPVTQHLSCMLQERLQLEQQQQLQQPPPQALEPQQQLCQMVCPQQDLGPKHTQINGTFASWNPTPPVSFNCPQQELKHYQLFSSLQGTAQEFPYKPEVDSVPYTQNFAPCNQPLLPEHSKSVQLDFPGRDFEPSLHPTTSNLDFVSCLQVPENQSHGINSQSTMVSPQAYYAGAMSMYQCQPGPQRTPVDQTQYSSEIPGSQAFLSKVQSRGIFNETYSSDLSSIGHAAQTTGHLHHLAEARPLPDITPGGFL
UniProt P53762: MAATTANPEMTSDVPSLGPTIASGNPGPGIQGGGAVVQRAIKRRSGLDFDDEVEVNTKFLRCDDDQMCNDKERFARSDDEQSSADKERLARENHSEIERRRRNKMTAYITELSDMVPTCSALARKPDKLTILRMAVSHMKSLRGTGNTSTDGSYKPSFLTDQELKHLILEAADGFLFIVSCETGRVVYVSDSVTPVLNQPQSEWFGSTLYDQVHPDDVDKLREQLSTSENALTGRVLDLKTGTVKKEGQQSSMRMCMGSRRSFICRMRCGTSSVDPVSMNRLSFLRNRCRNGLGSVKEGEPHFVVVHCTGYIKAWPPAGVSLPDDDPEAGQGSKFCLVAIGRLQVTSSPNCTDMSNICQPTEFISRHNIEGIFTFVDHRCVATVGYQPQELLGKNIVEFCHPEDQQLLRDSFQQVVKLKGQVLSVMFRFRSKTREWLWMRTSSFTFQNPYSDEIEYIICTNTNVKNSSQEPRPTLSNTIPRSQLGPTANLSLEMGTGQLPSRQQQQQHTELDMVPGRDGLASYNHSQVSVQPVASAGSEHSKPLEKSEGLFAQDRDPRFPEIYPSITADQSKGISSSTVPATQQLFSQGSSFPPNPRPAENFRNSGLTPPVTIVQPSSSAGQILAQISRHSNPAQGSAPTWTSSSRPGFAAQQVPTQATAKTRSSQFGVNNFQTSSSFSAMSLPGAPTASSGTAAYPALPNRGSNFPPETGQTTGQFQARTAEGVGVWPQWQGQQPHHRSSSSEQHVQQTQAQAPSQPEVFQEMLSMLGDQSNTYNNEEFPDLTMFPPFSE

Tests used:
[1] = target: HIF-1α (mouse (endogenous in CD4+ T cells of C57BL/6 mice)) (UniProt Q61221); assay: co-IP; HIF-1α/ARNT complexes in mouse CD4+ T cells treated with NOR (1, 3, 10, 30 µM) or TCDD (5 nM) in hypoxia; precipitating antibody not stated
[2] = target: aryl hydrocarbon receptor (mouse (endogenous in CD4+ T cells of C57BL/6 mice)) (UniProt P30561); assay: co-IP; lysates (stronger RIPA buffer) of mouse CD4+ T cells treated with anti-CD3/CD28 (2 µg/ml), NOR (1, 3, 10, 30 µM) or TCDD (5 nM) in hypoxia for 24 h; precipitated with 1 µg anti-AhR antibody or IgG at 4 °C overnight, protein A/G agarose; western blotting

binding [1]: binds | binding [2]: binds
Substance: ARNT (from UniProt P53762 1-791)
